Experimental data reported in paper doi:10.1101/2025.10.29.685266.
Results are given in words; binding and its absence hold for the method and conditions named. Binding seen in cells or lysates may run through a third protein. A yes stands for co-enrichment or nearness to the bait. Other partners may have been found.

Protein sequences, listed by entry. Tags and fused reporters are not part of them. Lines headed by an entry give the natural chain unless they say otherwise; changes in a name come on top. Chains listed by the source or under a name are the forms on record and can include a tag or linker.
GFP-TET3 (eGFP - TEV cleavage site - murine Tet3) (Q8BG87, form named): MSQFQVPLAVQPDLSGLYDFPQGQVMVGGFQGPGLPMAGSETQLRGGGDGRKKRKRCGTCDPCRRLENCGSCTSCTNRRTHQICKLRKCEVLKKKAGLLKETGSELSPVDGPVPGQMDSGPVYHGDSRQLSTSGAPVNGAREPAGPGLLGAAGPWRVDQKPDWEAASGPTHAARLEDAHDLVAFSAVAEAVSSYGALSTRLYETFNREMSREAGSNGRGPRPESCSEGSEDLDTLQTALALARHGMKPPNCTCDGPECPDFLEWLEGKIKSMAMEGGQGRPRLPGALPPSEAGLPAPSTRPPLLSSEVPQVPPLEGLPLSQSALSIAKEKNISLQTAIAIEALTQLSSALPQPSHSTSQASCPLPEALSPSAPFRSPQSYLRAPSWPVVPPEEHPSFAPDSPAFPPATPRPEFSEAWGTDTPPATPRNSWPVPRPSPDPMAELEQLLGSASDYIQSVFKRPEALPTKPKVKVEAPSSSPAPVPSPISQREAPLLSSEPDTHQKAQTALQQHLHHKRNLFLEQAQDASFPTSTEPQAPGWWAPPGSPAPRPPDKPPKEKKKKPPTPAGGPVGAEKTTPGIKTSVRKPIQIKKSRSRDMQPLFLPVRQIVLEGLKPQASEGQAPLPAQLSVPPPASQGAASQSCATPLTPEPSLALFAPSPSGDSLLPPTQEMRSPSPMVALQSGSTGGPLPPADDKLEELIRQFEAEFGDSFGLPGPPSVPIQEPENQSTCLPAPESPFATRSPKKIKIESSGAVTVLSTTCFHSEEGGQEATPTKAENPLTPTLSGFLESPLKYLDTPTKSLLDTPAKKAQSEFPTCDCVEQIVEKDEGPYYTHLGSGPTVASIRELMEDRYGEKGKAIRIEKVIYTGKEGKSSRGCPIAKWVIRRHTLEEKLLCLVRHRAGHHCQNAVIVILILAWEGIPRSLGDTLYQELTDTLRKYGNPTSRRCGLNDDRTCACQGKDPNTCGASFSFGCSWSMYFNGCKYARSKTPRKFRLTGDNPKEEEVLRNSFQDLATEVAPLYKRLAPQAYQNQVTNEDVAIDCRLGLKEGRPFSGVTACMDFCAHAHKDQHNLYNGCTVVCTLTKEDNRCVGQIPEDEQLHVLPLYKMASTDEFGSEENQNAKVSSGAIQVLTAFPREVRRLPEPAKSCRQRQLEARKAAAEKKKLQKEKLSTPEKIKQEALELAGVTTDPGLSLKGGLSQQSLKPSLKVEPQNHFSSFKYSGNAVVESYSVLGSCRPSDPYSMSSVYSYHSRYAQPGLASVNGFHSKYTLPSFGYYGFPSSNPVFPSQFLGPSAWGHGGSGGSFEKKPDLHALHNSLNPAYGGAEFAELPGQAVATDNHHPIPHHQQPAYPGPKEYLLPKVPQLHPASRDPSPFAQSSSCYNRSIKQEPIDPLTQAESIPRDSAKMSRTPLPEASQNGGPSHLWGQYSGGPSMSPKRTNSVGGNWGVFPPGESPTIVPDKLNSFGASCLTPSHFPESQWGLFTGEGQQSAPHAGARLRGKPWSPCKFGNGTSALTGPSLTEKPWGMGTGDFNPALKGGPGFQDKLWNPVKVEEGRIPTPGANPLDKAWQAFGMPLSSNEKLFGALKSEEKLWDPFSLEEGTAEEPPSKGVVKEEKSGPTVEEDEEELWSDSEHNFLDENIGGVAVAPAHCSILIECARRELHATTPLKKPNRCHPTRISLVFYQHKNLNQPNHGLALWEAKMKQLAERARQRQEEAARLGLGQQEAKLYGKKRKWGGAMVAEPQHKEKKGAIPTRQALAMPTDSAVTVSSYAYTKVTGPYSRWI
UniProt P35637: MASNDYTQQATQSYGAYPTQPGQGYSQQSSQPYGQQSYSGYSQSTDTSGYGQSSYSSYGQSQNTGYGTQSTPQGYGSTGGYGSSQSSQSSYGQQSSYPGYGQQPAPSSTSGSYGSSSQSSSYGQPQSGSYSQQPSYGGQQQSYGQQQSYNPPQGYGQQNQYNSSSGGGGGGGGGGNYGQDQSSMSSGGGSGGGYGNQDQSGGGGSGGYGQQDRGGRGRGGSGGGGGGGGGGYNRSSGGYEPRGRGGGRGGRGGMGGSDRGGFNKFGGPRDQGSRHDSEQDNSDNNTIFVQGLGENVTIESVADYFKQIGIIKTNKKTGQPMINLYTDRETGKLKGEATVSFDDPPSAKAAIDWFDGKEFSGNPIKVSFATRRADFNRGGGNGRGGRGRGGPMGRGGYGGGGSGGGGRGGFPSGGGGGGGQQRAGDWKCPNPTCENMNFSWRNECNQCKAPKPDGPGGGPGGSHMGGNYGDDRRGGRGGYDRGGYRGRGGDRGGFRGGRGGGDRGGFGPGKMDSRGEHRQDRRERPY
UniProt P09429: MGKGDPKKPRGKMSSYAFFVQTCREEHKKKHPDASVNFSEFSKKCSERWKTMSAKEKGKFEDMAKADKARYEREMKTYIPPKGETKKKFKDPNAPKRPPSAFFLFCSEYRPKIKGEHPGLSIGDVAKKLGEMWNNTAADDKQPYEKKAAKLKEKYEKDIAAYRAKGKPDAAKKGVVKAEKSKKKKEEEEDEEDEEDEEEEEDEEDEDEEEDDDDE
UniProt P45973: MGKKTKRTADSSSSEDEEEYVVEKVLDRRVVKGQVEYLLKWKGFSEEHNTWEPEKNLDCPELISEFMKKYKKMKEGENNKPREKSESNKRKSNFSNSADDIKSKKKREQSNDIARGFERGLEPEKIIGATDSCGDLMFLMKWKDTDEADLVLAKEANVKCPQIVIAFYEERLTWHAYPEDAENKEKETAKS
UniProt P83916: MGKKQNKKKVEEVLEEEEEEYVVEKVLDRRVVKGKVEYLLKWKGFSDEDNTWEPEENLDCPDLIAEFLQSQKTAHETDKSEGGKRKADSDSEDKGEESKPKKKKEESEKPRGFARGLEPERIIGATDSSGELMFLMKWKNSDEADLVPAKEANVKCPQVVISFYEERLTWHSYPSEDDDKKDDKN
UniProt Q13185: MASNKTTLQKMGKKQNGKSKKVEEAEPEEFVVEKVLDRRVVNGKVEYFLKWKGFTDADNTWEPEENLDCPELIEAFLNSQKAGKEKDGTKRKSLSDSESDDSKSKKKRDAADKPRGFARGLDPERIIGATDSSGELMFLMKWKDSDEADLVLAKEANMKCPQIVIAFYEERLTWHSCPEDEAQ
UniProt Q01844: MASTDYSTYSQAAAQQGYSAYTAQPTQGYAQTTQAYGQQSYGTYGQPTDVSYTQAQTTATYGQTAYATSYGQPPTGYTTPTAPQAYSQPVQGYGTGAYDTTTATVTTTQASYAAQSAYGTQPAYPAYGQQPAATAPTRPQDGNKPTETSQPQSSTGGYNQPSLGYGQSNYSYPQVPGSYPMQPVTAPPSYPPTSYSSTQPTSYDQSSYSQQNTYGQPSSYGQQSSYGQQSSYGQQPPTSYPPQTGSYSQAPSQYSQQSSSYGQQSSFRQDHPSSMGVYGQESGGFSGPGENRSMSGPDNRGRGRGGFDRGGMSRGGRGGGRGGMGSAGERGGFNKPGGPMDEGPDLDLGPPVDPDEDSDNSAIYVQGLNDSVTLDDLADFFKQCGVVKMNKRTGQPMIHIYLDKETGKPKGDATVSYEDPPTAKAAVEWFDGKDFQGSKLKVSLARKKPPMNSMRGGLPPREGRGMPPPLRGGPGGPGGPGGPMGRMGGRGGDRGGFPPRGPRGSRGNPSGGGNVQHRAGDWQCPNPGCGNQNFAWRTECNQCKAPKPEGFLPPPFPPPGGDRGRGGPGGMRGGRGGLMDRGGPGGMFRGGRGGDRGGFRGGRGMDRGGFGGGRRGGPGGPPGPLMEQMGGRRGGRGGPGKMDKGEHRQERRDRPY

What follows are molecules tested against GFP-TET3 (eGFP - TEV cleavage site - murine Tet3) (mouse) (UniProt Q8BG87) (assay: affinity purification with mass spectrometry).

binding	Molecule
binds	FUS (from UniProt P35637 1-526)
binds	high mobility group box protein HMGB1 (from UniProt P09429 1-215)
binds	chromobox protein CBX5 (from UniProt P45973 1-191)
binds	chromobox protein CBX1 (from UniProt P83916 1-185)
binds	chromobox protein CBX3 (from UniProt Q13185 1-183)
binds	EWS (from UniProt Q01844 1-656)
binds	high mobility group box protein HMGB2 (protein, UniProt P26583 1-209) MGKGDPNKPRGKMSSYAFFVQTCREEHKKKHPDSSVNFAEFSKKCSERWKTMSAKEKSKFEDMAKSDKARYDREMKNYVPPKGDKKGKKKDPNAPKRPPSAFFLFCSEHRPKIKSEHPGLSIGDTAKKLGEMWSEQSAKDKQPYEQKAAKLKEKYEKDIAAYRAKGKSEAGKKGPGRPTGSKKKNEPEDEEEEEEEEDEDEEEEDEDEE
binds	high mobility group box protein HMGB3 (protein, UniProt O15347 1-200) MAKGDPKKPKGKMSAYAFFVQTCREEHKKKNPEVPVNFAEFSKKCSERWKTMSGKEKSKFDEMAKADKVRYDREMKDYGPAKGGKKKKDPNAPKRPPSGFFLFCSEFRPKIKSTNPGISIGDVAKKLGEMWNNLNDSEKQPYITKAAKLKEKYEKDVADYKSKGKFDGAKGPAKVARKKVEEEDEEEEEEEEEEEEEEDE
